Laboratory results taken from PubChem BioAssay AID1794845 (National Center for Advancing Translational Sciences (NCATS), 2023).
In all, about 6,900 compounds went through this assay and fewer than 10 were called active. Calls come from the whole dose curve; as a rule, active = well fitted curve in the direction sought with a large enough effect; inconclusive = small, poorly fitted or top-dose-only effect, or another doubt; inactive = no such curve, though single readings can be large or run the other way. This is one part of the list.

Chains of the proteins cited; added tags and fusions are not shown. Lines headed by an entry give the natural chain unless they say otherwise; changes in a name come on top.
UniProt C7C422: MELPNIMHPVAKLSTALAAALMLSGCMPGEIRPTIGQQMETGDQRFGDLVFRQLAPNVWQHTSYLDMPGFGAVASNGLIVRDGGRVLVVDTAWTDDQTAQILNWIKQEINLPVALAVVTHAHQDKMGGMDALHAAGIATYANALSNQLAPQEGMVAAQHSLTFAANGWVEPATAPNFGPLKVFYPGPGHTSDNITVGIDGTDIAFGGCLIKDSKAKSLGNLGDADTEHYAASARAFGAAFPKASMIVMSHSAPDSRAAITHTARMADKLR

Biological target: Metallo-beta-lactamase type 2 (Klebsiella pneumoniae) (UniProt C7C422)
Assay: qHTS to identify inhibitors of the New Delhi Metallo-beta-lactamase (NDM): primary screen against the NCATS Gemini Collection; note: % of control where 0% means no effect
Settings: NDM-1 enzyme, meropenem hydrolysis, absorbance 300 nm; at 38.4 µM (top of the series) unless noted
How it was run: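 Meropenem hydrolysis (50 uM final) by 2 nM NDM-1 read as 300 nm absorbance after 30 min, following >30 min compound–enzyme preincubation in HEPES pH 7.0 with 1 uM ZnSO4 and 0.01% Tween20.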

Structure (SMILES)	activity % (negative = inhibition)
O=C(NCc1csc(-c2cnccn2)n1)C1NCCc2[nH]cnc21 (stereo not given)	inactive: -2.7%
COCC(=O)N[C@H]1C[C@H]2C(=O)NC[C@@H](CCC(=O)N3CCN(c4ccccn4)CC3)N2C1	inactive: 7.81%
Cn1cc(CNC(=O)C[C@@H]2C[C@H]3O[C@H](CNC4CCCC4)[C@@H](O)[C@H]3O2)cn1	inactive: -4.18% [at 57.5 µM]
O=C(NC1CC1)c1nc(-c2cccnc2)c2cnccn12	inactive: 13.1% [at 57.5 µM]
CC1CCCCN1Cc1nnc2cc(-c3nc(-c4ccccc4)no3)ccn12 (stereo not given)	inactive: 11.3%
COc1c(F)ccc(C(=O)N2CCC3(CCCNC3)C2)c1F (stereo not given)	inactive: 9.57%
CN(C1CCCc2ccccc21)S(=O)(=O)c1cccc(C(F)(F)F)c1 (stereo not given)	inactive: 12.7%
CC1(C)NC(=O)N(CC(=O)N[C@H](Cc2ccccn2)C2CC(O)C2)C1=O (stereo not given in full)	inactive: -0.419%
COc1ccccc1OC1(C(=O)O)CCN(Cc2ccc(-c3ccn[nH]3)o2)CC1	inactive: 3.21%
CC(C)CN1CCN(C(=O)CC2CCN(S(C)(=O)=O)C2)CC1 (stereo not given)	inactive: 26.1%
COc1ccccc1Nc1ccnc(N2CCCC(C(=O)NCc3cccc(Cl)c3)C2)n1 (stereo not given)	inactive: 4.86%
COc1ccc(CN2CCCC3(C2)CN(C)C(=O)O3)cc1C(=O)O (stereo not given)	inactive: -6.01%
C[S+](=O)([O-])CCn1ncc2cc(OCC3CCN(Cc4ccccc4)CC3)ccc21	inactive: 12.6% [at 57.5 µM]
Cc1ccc(NC(=O)CC2CCN(S(C)(=O)=O)C2)cc1 (stereo not given)	inactive: 5.7%
CCS(=O)(=O)Nc1ccc(C)n(CC(=O)N(C)Cc2ccccc2)c1=O	inactive: 7.38%
Cc1cc(C)c2c(N3CCCC(OCc4cccnc4)C3)ncnc2n1 (stereo not given)	inactive: 7.83%
O=C(c1nc(-c2cc(Cl)cc(Cl)c2)c2ccccn12)N1CCCC1	inactive: 4.41%
Cc1ccc(NC(=O)N2CCC3(CC2)CC(Cc2nc(-c4ccccc4)no2)CCO3)cc1C (stereo not given)	inactive: 6.66%
CC(=O)Nc1ccc(CN2CCC3(C2)C(=O)N(C)c2ccccc23)cc1 (stereo not given)	inactive: -7.74%
COc1ccc(-c2cc(C(=O)N3CCCC3)ccn2)cc1F	inactive: 9.31%
O=C(Nc1nc2ccccc2s1)c1ccc2c(c1)OCCN(CCC(F)(F)F)C2	inactive: 9.6% [at 57.5 µM]
CCOc1ccc(CN(CCOC)C(=O)C2CC3(CCNCC3)CN2)cc1 (stereo not given)	inactive: 0.537%

Structure (SMILES)	activity % (negative = inhibition)
CCn1nc(C)c(CNC(=O)c2cc(COc3ccc4ncccc4c3)on2)c1C	inactive: 6.42%
COCC(=O)N[C@@H]1CN(Cc2cn(C)nc2C)C[C@H]1CO	inactive: -3.58%
COc1ccc(CC(=O)N2CCC(c3n[nH]c(=O)n3Cc3ccc(F)cc3)CC2)cc1	inactive: 1.79%
COCCn1nnnc1C1CC2(CCOCC2)C(=O)N1Cc1ccc(SC)cc1 (stereo not given)	inactive: 0.477%
O=C(C1CCCC1)N1CCC(C(=O)N2CCCC2c2ccccn2)CC1 (stereo not given)	inactive: 17.4%
COCC1CN(C(C)=O)CC12CCN(Cc1cccc(Cl)c1F)CC2 (stereo not given)	inactive: -9.29%
COC(=O)[C@@H]1Cc2ncn(C(C)C)c2CN1S(C)(=O)=O	inactive: 0% [at 57.5 µM]
CCn1cc(CN2CCN(C(=O)CCc3ccccc3)CC2)ccc1=O	inactive: 7.37%
O=C(CCc1ccccc1)N1CCCC(CN2CCCC2)CC1 (stereo not given)	inactive: -0.27%
Cc1nc2ncnn2c(C)c1CCC(=O)N1C[C@@H](N)C[C@H]1C(=O)NC(C)C	inactive: 0.957%
Cn1cc(-c2cc3c(ccn3Cc3ccncc3)c(N3CCOCC3)n2)cn1	inactive: 23.9% [at 57.5 µM]
O=C(c1cn(CCC2CCCCN2)nn1)N1CCc2nc[nH]c(=O)c2CC1 (stereo not given)	inactive: -0.118%
O=C(Nc1ccc2ncnc(N3CCCCC3)c2c1)c1cc(F)ccc1F	inactive: 10.3%
O=C(c1ccnc(CC2CC(=O)N(c3ccccc3)C2)c1)N1CCCCC1 (stereo not given)	inactive: 5.37%
CCC(=O)N1Cc2ccccc2CC2(CCCN2CC2CCOCC2)C1 (stereo not given)	inactive: -0.92%
Cc1cnc(C(=O)N2CCCC2c2nc(CCOCC3CCCC3)no2)cn1 (stereo not given)	inactive: -0.239%
O=C1NC2(Cc3ccccc31)CN(C(=O)c1ccccc1)C2	inactive: 12.4% [at 57.5 µM]
CCOC(=O)C[C@@H]1C[C@@H](C(C)C)[C@H](CNC(=O)c2cccnc2)C=C1C	inactive: 14.1% [at 57.5 µM]
COCCCn1c(C)cnc1CC1CCN(C(=O)C2CCCCC2)CC1	inactive: 48.2%
Cc1ccc(CNC(=O)N2CCc3nnc(C4CC4)n3CC2)cc1	inactive: 13.1%
Cc1cnc(C2CC2)n1C1CCN(C(=O)C2CC2)CC1	inactive: -2.82%
CCN1CC2(CCN(Cc3nc(COC)no3)CC2)CC(c2ccccc2)C1=O (stereo not given)	inactive: 16.1%

Structure (SMILES)	activity % (negative = inhibition)
O=S(=O)(NC[C@H]1O[C@@H](CO)[C@@H](O)[C@H]1N1CCOCC1)c1ccc(Cl)cc1	inactive: -7.97%
c1cc(CN(CCN2CCCCC2)CC2CCCN(C3CCCC3)C2)c2nonc2c1 (stereo not given)	inactive: 5.81%
Cc1ccc(CNC(=O)N2CCC(c3nc(CCOCC4CCOCC4)no3)C2)cc1 (stereo not given)	inactive: -7.54%
COC[C@@H]1CN(S(=O)(=O)c2cnc[nH]2)C[C@H]1c1ccccn1	inactive: 1.39%
Cn1cnc(C(=O)N2CCC3(CC2)CC(N(Cc2ccccc2)C2CC2)CCO3)c1 (stereo not given)	inactive: -13.7%
CCc1nc2c(c(-c3ccc(Cl)cc3)n1)CN([S+](=O)([O-])c1c(C)noc1C)CC2	inactive: -1.09%
Cc1noc(C)c1S(=O)(=O)N1CCc2n[nH]c(=O)n2CC1	inactive: 9.56%
COc1ccc(NC(=O)c2cc3c(s2)CN(C2CCCC2)C3)c(OC)c1	inactive: 2.49%
Cn1nccc1C(=O)N1CCC2(CCCN(Cc3cccc(F)c3F)C2=O)C1 (stereo not given)	inactive: -9.07%
COCCNC(=O)C1c2ccccc2C(=O)N(Cc2ccco2)C12CCCCC2 (stereo not given)	inactive: 3.06%
O=C(NCCc1ccc(Cl)cc1)C1CCc2nnc(C3CCN([S+](=O)([O-])c4ccccc4)CC3)n21 (stereo not given)	inactive: 0.376%
Cc1nc(-c2c3n(c(=O)n(Cc4ccccc4C(F)(F)F)c2=O)CCCCC3)no1	inactive: 2.52%
Cc1cc(C(=O)N2CCC3(CC2)CC(N2CCN(c4ccccn4)CC2)CCO3)n[nH]1 (stereo not given)	inactive: 0.195%
Cn1cc(CN2CCCC(C(=O)N3CCOCC3)C2)c(-c2ccc(C3CCCCC3)cc2)n1 (stereo not given)	inactive: -16.6%
COc1ccc(S(=O)(=O)N2CCOC[C@H](Oc3ccccc3)C2)cc1	inactive: 0.651% [at 57.5 µM]
O=C1N(CC2CC2)CCCC1(O)CNCc1cc(F)cc(F)c1 (stereo not given)	inactive: -1.11%
OCCOCCn1cnc(-c2ccccc2)c1COCc1ccccc1	inactive: -1.13%
O=C(CC1CCCCC1)NCc1nnc2cc(-c3nc(C4CC4)no3)ccn12	inactive: 1.31%
COc1cccc(S(=O)(=O)N2C[C@@H](C)[C@](O)(C3CCC3)C2)c1	inactive: -6.57%
CN(C)CC1(O)CCC2(CCN(C(=O)C3CCCC3)CC2)CC1	inactive: -2.34%
COc1ccccc1-c1cc(C(=O)NC2CC2)nn2cnnc12	inactive: 0.0703% [at 57.5 µM]
CCOc1ccc(Cl)cc1CN(C)C(=O)C1CC(=O)N(CC)C1 (stereo not given)	inactive: -2.57%

Structure (SMILES)	activity % (negative = inhibition)
Cc1ccc(CN2CCNC(=O)C2CC(=O)N(CC(C)C)CC(C)C)cc1 (stereo not given)	inactive: 7.96%
COc1ccccc1-c1[nH]nc2ncc(C(=O)NCC3CC3)nc12	inactive: -1.26% [at 57.5 µM]
OCCC1CN(c2nccc(-c3ccccn3)n2)CCN1Cc1ccoc1 (stereo not given)	inactive: 3.48%
CCN(CC)C(=O)[C@@H]1C[C@@H](NC(=O)c2ccn(CC)c(=O)c2)CN1C(C)=O	inactive: 25%
O=C(NC1CCCC1)c1ccc(OC2CCN(C(=O)C3CCCO3)CC2)c(Cl)c1 (stereo not given)	inactive: 2.13%
CC(C)n1cc(CN2C[C@@H]3C(=O)N(Cc4ccc5c(c4)OCO5)C(=O)[C@@H]3C2)c2ccccc21	inactive: -1.66%
Cc1ccnn1CCC(=O)N[C@@H]1COCC[C@H]1Oc1ccc(C(N)=O)cc1	inactive: -8.46%
Fc1cccc(CN2CCO[C@@H](COc3ccccn3)[C@@H]2c2ccccc2)c1	inactive: 1.31%
CCOC(=O)N1CCN(C(C(=O)O)c2ccc(OC)nc2OC)CC1 (stereo not given)	inactive: 71.5%
O=[S+]1([O-])NC2(CCN(Cc3ccc(F)cc3)CC2)CNc2ccccc21	inactive: 4.06%
CS(=O)(=O)NCCc1ccc(CC2CCN(C(=O)c3cnccn3)CC2)cc1	inactive: 5.8%
O=C1Nc2ccccc2CC12CCN2Cc1ccc(OC(F)(F)F)cc1 (stereo not given)	inactive: 0.918%
O=C(O)c1ccc(CN2CCC[C@H]2c2nc(-c3ccc(OC4CCCCC4)nc3)no2)cc1	inactive: -3.98%
Cc1ccc2c(n1)N(C)[C@H](CO)CCN(Cc1cccc(Cl)c1)C2	inactive: -8.47% [at 57.5 µM]
Cc1noc(CN2C[C@H](NC(=O)CNS(C)(=O)=O)[C@@H](C3CC3)C2)n1	inactive: 2.74%
Cn1cc(CN2C[C@H](C(=O)Nc3nccs3)C[C@@H]2c2cccc(C(F)(F)F)c2)cn1	inactive: 4.37% [at 57.5 µM]
COc1ccc(CNC(=O)C2=NO[C@@H]3CN(c4ccccn4)C[C@H]23)cc1OC	inactive: 6.16% [at 57.5 µM]
CN1CC(O)CN([S+](=O)([O-])c2cccs2)CC1=O (stereo not given)	inactive: -1.72%
c1ccc(CN2CCc3c(sc4ncnc(N5CCOCC5)c34)C2)cc1	inactive: 3.98%

Of the compounds above, these have a thiophene ring, fused or not.
Structure (SMILES)	activity % (negative = inhibition)
COc1ccc(NC(=O)c2cc3c(s2)CN(C2CCCC2)C3)c(OC)c1	inactive: 2.49%
CN1CC(O)CN([S+](=O)([O-])c2cccs2)CC1=O (stereo not given)	inactive: -1.72%
c1ccc(CN2CCc3c(sc4ncnc(N5CCOCC5)c34)C2)cc1	inactive: 3.98%
